Data as given in paper doi:10.1101/2025.08.08.669391.
These are yes or no findings as the source states them, for the method shown. In cells and extracts the contact can be indirect. Some results given as binding are weak or reduced against the parent protein; the word gives no strength. Where a sequence is shown, tags or fusion partners need not be part of it. Values belong to the molecule of their own block, whether it stands above or below them.

By UniProt entry, the sequences of proteins in these tests, tags left out.
UniProt Q92769: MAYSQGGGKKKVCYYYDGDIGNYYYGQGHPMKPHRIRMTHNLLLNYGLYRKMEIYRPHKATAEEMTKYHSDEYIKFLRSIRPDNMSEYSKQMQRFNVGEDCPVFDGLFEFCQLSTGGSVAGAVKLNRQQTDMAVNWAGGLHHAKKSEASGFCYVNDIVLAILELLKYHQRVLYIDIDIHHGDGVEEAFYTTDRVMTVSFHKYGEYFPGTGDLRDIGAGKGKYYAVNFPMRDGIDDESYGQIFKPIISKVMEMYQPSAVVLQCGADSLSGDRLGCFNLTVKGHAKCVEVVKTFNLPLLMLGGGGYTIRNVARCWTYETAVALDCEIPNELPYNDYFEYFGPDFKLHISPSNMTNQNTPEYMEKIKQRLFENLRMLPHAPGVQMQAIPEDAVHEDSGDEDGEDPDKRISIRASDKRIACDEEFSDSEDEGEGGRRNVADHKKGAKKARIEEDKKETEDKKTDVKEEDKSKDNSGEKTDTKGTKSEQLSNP

How the values were obtained:
[1] = target: T1, Halo-C16orf87 (N-terminally Halo-tagged MHAP1) (human) (UniProt Q6PH81); test: cross-linking; XL-MS: Halo-MHAP1 affinity purification from HEK293T, three biological replicates; 5 mM DSSO added while the proteins were on the Magne HaloTag beads, 40 min at room temperature; AcTEV elution; XlinkX, FDR 0.01
T1 sequence: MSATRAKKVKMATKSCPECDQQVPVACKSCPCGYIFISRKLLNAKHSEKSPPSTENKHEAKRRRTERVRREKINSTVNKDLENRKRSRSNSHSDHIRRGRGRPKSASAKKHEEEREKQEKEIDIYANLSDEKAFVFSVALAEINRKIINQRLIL

HDAC2-Halo (human) [2] = target: HDAC2-Halo (human) (UniProt Q92769); test: pull-down; Halo pulldown from lysates of HEK293T cells co-transiently expressing SNAP-FLAG-C16orf87 and a Halo-tagged bait; eluates by SDS-PAGE and Western blot (anti-FLAG, anti-Halo)
Halo-MIER1b (human) = target: T2, Halo-MIER1b (human) (UniProt Q8N108); test: as above
T2 sequence: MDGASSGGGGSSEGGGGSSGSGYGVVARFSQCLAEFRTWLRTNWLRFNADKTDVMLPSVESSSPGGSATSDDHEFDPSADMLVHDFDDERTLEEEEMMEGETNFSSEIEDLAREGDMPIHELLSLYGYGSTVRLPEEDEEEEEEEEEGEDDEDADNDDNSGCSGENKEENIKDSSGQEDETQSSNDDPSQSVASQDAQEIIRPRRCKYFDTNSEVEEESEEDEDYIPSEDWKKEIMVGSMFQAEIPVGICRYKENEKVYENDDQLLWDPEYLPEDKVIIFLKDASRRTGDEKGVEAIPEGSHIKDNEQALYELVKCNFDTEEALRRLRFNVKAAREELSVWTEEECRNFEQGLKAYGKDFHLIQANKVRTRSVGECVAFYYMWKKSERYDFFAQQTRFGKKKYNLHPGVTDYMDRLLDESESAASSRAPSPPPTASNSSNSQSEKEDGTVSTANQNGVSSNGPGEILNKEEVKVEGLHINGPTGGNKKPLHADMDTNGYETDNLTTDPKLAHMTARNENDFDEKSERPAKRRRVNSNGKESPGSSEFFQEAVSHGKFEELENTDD

Halo-SAP30 = target: T3, Halo-SAP30 (UniProt O75446); test: as above
T3 sequence: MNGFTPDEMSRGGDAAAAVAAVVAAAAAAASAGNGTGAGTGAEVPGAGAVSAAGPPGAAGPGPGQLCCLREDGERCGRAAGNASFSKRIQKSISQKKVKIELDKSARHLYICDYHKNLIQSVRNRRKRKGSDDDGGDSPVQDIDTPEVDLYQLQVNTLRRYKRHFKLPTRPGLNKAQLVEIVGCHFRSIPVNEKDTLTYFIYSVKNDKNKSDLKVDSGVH

Halo-SIN3A = target: T4, Halo-SIN3A (UniProt Q96ST3); test: as above
T4 sequence: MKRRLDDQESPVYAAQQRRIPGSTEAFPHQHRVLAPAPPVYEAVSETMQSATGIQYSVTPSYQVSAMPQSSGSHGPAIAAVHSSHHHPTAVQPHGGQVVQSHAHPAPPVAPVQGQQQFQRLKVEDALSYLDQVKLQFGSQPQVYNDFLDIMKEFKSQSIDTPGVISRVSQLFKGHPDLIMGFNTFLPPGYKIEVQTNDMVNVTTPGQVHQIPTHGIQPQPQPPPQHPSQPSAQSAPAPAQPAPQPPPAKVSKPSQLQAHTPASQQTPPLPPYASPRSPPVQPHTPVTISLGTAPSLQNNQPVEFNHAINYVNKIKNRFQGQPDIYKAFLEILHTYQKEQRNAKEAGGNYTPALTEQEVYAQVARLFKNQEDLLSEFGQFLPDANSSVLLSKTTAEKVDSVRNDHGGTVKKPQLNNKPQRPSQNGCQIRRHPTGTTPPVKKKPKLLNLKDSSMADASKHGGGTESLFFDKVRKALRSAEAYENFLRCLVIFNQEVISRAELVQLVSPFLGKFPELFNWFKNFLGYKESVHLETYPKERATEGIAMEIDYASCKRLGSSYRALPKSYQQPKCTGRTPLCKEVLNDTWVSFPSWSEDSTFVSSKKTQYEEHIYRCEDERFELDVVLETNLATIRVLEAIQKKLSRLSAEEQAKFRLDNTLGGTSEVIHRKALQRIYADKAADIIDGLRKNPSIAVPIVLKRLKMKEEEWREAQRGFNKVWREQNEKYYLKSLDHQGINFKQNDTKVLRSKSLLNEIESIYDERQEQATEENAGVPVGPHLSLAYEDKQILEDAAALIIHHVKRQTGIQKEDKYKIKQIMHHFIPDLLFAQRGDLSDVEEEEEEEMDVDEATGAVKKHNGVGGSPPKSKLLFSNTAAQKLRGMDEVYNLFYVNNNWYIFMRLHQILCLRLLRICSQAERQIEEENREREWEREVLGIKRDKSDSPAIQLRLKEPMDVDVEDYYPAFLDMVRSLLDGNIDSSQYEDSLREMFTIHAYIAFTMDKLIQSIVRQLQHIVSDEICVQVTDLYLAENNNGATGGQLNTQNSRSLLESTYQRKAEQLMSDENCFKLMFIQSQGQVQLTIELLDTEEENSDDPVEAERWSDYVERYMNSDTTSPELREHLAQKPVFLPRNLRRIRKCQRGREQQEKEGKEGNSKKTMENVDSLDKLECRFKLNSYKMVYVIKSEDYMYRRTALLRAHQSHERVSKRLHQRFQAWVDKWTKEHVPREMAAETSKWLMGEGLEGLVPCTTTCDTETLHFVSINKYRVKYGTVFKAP

Halo-SUDS3 = target: T5, Halo-SUDS3 (UniProt Q9H7L9); test: as above
T5 sequence: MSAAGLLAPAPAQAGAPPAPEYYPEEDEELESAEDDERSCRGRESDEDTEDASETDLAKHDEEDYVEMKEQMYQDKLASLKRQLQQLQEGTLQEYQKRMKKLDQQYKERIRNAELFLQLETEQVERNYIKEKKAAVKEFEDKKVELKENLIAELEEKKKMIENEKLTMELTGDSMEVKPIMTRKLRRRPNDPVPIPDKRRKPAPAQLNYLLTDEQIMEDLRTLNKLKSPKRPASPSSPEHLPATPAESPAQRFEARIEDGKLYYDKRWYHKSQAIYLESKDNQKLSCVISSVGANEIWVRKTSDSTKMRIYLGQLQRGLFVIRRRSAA

HDAC2-Halo (human) [3] = target: HDAC2-Halo (human) (UniProt Q92769); test: FRET or BRET; acceptor photobleaching FRET (AP-FRET) in co-transiently transfected HEK293T cells; donor SNAP-Cell 505-Star on the SNAP tag, acceptor HaloTag TMR on the HaloTag; nuclei bleached at 561 nm

- binding [1]: binds
Molecule: HDAC2 (endogenous, co-purified with Halo-MHAP1) (from UniProt Q92769 1-488) (enzyme)

- binding (HDAC2-Halo (human) [2]): binds
- binding (Halo-MIER1b (human)): binds
- binding (Halo-SAP30): no binding
- binding (Halo-SIN3A): no binding
- binding (Halo-SUDS3): no binding
- binding (HDAC2-Halo (human) [3]): binds
B1: SNAP-Flag-C16orf87 (protein, UniProt Q6PH81-1 1-154)
chain: T1 sequence
modifications: SNAP-Cell 505-Star ligand on the SNAP tag (AP-FRET)
